This test deals with T1, C4d fragment of the C4 complement protein (human) (UniProt P0C0L4).
T1 sequence (looked up): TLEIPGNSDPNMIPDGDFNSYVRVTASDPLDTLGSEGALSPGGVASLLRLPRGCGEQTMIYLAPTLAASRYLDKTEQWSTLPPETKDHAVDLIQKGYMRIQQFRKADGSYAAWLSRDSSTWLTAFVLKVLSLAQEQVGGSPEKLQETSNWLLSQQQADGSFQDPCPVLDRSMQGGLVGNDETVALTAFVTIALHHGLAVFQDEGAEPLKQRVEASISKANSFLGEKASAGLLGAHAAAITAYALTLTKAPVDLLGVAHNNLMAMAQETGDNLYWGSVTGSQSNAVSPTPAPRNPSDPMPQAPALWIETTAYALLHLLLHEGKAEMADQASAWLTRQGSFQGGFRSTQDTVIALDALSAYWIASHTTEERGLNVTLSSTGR
Description: ELISA. For orientation: ELISA stands for enzyme-linked immunosorbent assay.

These are yes or no findings as the source states them, for the method shown. Some entries that bind do so weakly or less than the wild type.

B1: anti-C4d mAb2 monoclonal antibody (antibody, human IgG1, kappa, V domains shown)
VH: QSVEESGGRLVTPGTPLTLTCTVSGFSLSSYAMGWFRQAPGKGLEWIGFINIGGRASYASWAKGRFTISKTSTTVDLKMTSPTTEDTATYFCARGRAYTLTGGTYTRAFDPWGPGTLVTVSS
VL: AQVLTQTASPVSAAVGSTVTINCQSSQKVYGNNNLAWYRQKPGQPPKVLIYAASTLASGVPSRFKGYGSGTQFTLTISDLECDDAATYYCAGAYGGDIYPFGGGTELEIKR
Take B1: the binding entry is reported as “binds”.
